Where a name gives a salt, the structure may show the parent alone.
System: skin
Details: procedure not specified

CN(C)CCOC(c1ccccc1)c1ccccc1 [diphenhydramine hydrochloride]
skin irritation (in words): minimally irritating

Reference: patent publication US5422118A, “Transdermal administration of amines with minimal irritation and high transdermal flux rate” (priority 1992, dated 1995)
